In US6576771B1, “Oxymethoxy-3-aryl-pyrone derivatives” (Bayer Aktiengesellschaft, priority 1995, dated 2003):
Some results were stated once for a whole list of compounds, not compound by compound. At least one structure is not confirmed: it was looked up by name or label, or the drawing left a doubt. Some compounds share one range, which may span the group rather than tell each member.

The compounds below were run on peach aphid (Myzus persicae) (assay: Myzus test). Conditions: after 6 days; active compound concentration 0.1%; cabbage leaves dipped.
Type: in vivo
`C#CCOCOc1c(C)c(-c2ccccn2)oc(=O)c1-c1c(C)cc(C)cc1C` [Example 1, 5-methyl-6-(2-pyridyl)-4-propargyloxymethoxy-3-(2,4,6-trimethylphenyl)-2-pyrone] was tested, and the degree of destruction was 95 to 100%.
With `Cc1cc(C)c(-c2c(OCOCC(C)C)c(C)c(-c3cccc(C)n3)oc2=O)c(C)c1` [Example 27] the degree of destruction was 95 to 100%.
Work on `Cc1cc(C)c(-c2c(OCOCC(C)C)oc(-c3ccsc3)c(C)c2=O)c(C)c1` [Example 36, 2-[(2-Methyl-1-propoxy)-methoxy]-5-methyl-6-(3-thienyl)-3-(2,4,6-trimethyl-phenyl)-4-pyrone] yielded a degree of destruction of 95 to 100%.
